# Assay results published in the supplement of paper PMC8728848.
# This is one part of the list.
# B1: EULS2 M3 (Oryza sativa) (protein)
# chain: MVYCRANPNYAMTARNGAVVLAPANPKDEYQHWIKDMRWSTSIKDEEGYPAFALVNKATGQAIKHSLGQSHPVRLVPYNPEVMDESVLWTESRDVGNGFRCIRMVNNIYLNFDAFHGDKYHGGVRDGTDIVLWKLCEGDSLRWKIQPYYILEQKLISEEDLNSAVDHHHHHH
# What was measured:
# Assay in all cases: glycan array binding signal (z-score within array); higher = stronger binding
# Details in all cases: glycan notation: IUPAC condensed, linker removed
# [1] = target: Gal(b1-4)GlcNAc(b1-3)Gal(b1-4)GlcNAc(b1-2)[Gal(b1-4)GlcNAc(b1-3)Gal(b1-4)GlcNAc(b1-6)]Man(a1-6)[Gal(b1-4)GlcNAc(b1-3)Gal(b1-4)GlcNAc(b1-2)Man(a1-3)]Man(b1-4)GlcNAc(b1-4)GlcNAc
# Method in brief: (§1)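 Glycan array data came from 3228 arrays in the Consortium for Functional Glycomics database, and only arrays with an available protein sequence were kept. Glycan names were put into IUPAC-condensed notation, and columns mapping to the same glycan were averaged. The binding signal is a within-array Z-score, averaged across arrays of one protein sequence run at different concentrations or buffers and across linkers. A negative Z-score can be read as non-binding.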
# [2] = target: Gal(b1-4)GlcNAc(b1-3)Gal(b1-4)GlcNAc(b1-2)[Gal(b1-4)GlcNAc(b1-3)Gal(b1-4)GlcNAc(b1-6)]Man(a1-6)[Gal(b1-4)GlcNAc(b1-3)Gal(b1-4)GlcNAc(b1-2)Man(a1-3)]Man(b1-4)GlcNAc(b1-4)[Fuc(a1-6)]GlcNAc
# Method in brief: as §1
# [3] = target: Gal(b1-4)GlcNAc(b1-3)Gal(b1-4)GlcNAc(b1-3)Gal(b1-4)GlcNAc
# Method in brief: as §1
# [4] = target: Gal(b1-4)GlcNAc(b1-3)Gal(b1-4)GlcNAc(b1-3)Gal(b1-4)GlcNAc(b1-2)Man(a1-3)[Gal(b1-4)GlcNAc(b1-3)Gal(b1-4)GlcNAc(b1-3)Gal(b1-4)GlcNAc(b1-2)Man(a1-6)]Man(b1-4)GlcNAc(b1-4)GlcNAc
# Method in brief: as §1
# [5] = target: Gal(b1-4)GlcNAc(b1-3)Gal(b1-4)GlcNAc(b1-3)Gal(b1-4)GlcNAc(b1-2)Man(a1-3)[Gal(b1-4)GlcNAc(b1-3)Gal(b1-4)GlcNAc(b1-3)Gal(b1-4)GlcNAc(b1-2)Man(a1-6)]Man(b1-4)GlcNAc(b1-4)[Fuc(a1-6)]GlcNAc
# Method in brief: as §1
# [6] = target: Gal(b1-4)GlcNAc(b1-3)Gal(b1-4)GlcNAc(b1-3)Gal(b1-4)GlcNAc(b1-2)[Gal(b1-4)GlcNAc(b1-3)Gal(b1-4)GlcNAc(b1-3)Gal(b1-4)GlcNAc(b1-6)]Man(a1-6)[Gal(b1-4)GlcNAc(b1-3)Gal(b1-4)GlcNAc(b1-3)Gal(b1-4)GlcNAc(b1-2)Man(a1-3)]Man(b1-4)GlcNAc(b1-4)[Fuc(a1-6)]GlcNAc
# Method in brief: as §1
# [7] = target: Gal(b1-4)GlcNAc(b1-3)Gal(b1-4)GlcNAc(b1-3)Gal(b1-4)GlcNAc(b1-3)Gal(b1-4)GlcNAc(b1-2)Man(a1-3)[Gal(b1-4)GlcNAc(b1-3)Gal(b1-4)GlcNAc(b1-3)Gal(b1-4)GlcNAc(b1-3)Gal(b1-4)GlcNAc(b1-2)Man(a1-6)]Man(b1-4)GlcNAc(b1-4)GlcNAc
# Method in brief: as §1
# [8] = target: Gal(b1-4)GlcNAc(b1-3)Gal(b1-4)GlcNAc(b1-3)Gal(b1-4)GlcNAc(b1-3)Gal(b1-4)GlcNAc(b1-2)Man(a1-3)[Gal(b1-4)GlcNAc(b1-3)Gal(b1-4)GlcNAc(b1-3)Gal(b1-4)GlcNAc(b1-3)Gal(b1-4)GlcNAc(b1-2)Man(a1-6)]Man(b1-4)GlcNAc(b1-4)[Fuc(a1-6)]GlcNAc
# Method in brief: as §1
# [9] = target: Gal(b1-4)GlcNAc(b1-3)Gal(b1-4)GlcNAc(b1-3)Gal(b1-4)GlcNAc(b1-3)Gal(b1-4)GlcNAc(b1-2)[Gal(b1-4)GlcNAc(b1-3)Gal(b1-4)GlcNAc(b1-3)Gal(b1-4)GlcNAc(b1-3)Gal(b1-4)GlcNAc(b1-6)]Man(a1-6)[Gal(b1-4)GlcNAc(b1-3)Gal(b1-4)GlcNAc(b1-3)Gal(b1-4)GlcNAc(b1-3)Gal(b1-4)GlcNAc(b1-2)Man(a1-3)]Man(b1-4)GlcNAc(b1-4)[Fuc(a1-6)]GlcNAc
# Method in brief: as §1
# [10] = target: Gal(b1-4)GlcNAc(b1-3)Gal(b1-4)GlcNAc(b1-3)Gal(b1-4)GlcNAc(b1-3)Gal(b1-4)GlcNAc(b1-3)Gal(b1-4)GlcNAc(b1-2)Man(a1-3)[Gal(b1-4)GlcNAc(b1-3)Gal(b1-4)GlcNAc(b1-3)Gal(b1-4)GlcNAc(b1-3)Gal(b1-4)GlcNAc(b1-3)Gal(b1-4)GlcNAc(b1-2)Man(a1-6)]Man(b1-4)GlcNAc(b1-4)GlcNAc
# Method in brief: as §1
# [11] = target: Gal(b1-4)GlcNAc(b1-3)Gal(b1-4)GlcNAc(b1-3)Gal(b1-4)GlcNAc(b1-3)Gal(b1-4)GlcNAc(b1-3)Gal(b1-4)GlcNAc(b1-2)Man(a1-3)[Gal(b1-4)GlcNAc(b1-3)Gal(b1-4)GlcNAc(b1-3)Gal(b1-4)GlcNAc(b1-3)Gal(b1-4)GlcNAc(b1-3)Gal(b1-4)GlcNAc(b1-2)Man(a1-6)]Man(b1-4)GlcNAc(b1-4)[Fuc(a1-6)]GlcNAc
# Method in brief: as §1
# [12] = target: Gal(b1-4)GlcNAc(b1-3)Gal(b1-4)GlcNAc(b1-3)Gal(b1-4)GlcNAc(b1-3)Gal(b1-4)GlcNAc(b1-3)Gal(b1-4)GlcNAc(b1-2)[Gal(b1-4)GlcNAc(b1-3)Gal(b1-4)GlcNAc(b1-3)Gal(b1-4)GlcNAc(b1-3)Gal(b1-4)GlcNAc(b1-3)Gal(b1-4)GlcNAc(b1-6)]Man(a1-6)[Gal(b1-4)GlcNAc(b1-3)Gal(b1-4)GlcNAc(b1-3)Gal(b1-4)GlcNAc(b1-3)Gal(b1-4)GlcNAc(b1-3)Gal(b1-4)GlcNAc(b1-2)Man(a1-3)]Man(b1-4)GlcNAc(b1-4)[Fuc(a1-6)]GlcNAc
# Method in brief: as §1
# [13] = target: Gal(b1-4)GlcNAc(b1-3)Gal(b1-4)GlcNAc(b1-3)Gal(b1-4)GlcNAc(b1-3)Gal(b1-4)GlcNAc(b1-3)Gal(b1-4)GlcNAc(b1-3)Gal(b1-4)GlcNAc(b1-2)Man(a1-3)[Gal(b1-4)GlcNAc(b1-3)Gal(b1-4)GlcNAc(b1-3)Gal(b1-4)GlcNAc(b1-3)Gal(b1-4)GlcNAc(b1-3)Gal(b1-4)GlcNAc(b1-3)Gal(b1-4)GlcNAc(b1-2)Man(a1-6)]Man(b1-4)GlcNAc(b1-4)GlcNAc
# Method in brief: as §1
# [14] = target: Gal(b1-4)GlcNAc(b1-3)Gal(b1-4)GlcNAc(b1-3)GalNAc
# Method in brief: as §1
# [15] = target: Gal(b1-4)GlcNAc(b1-3)Gal(b1-4)GlcNAc(b1-3)[Gal(b1-4)GlcNAc(b1-3)Gal(b1-4)GlcNAc(b1-6)]GalNAc
# Method in brief: as §1
# [16] = target: Gal(b1-4)GlcNAc(b1-3)Gal(b1-4)GlcNAc(b1-6)[Gal(b1-3)]GalNAc
# Method in brief: as §1
# [17] = target: Gal(b1-4)GlcNAc(b1-3)Gal(b1-4)[Fuc(a1-3)]GlcNAc(b1-3)Gal(b1-4)[Fuc(a1-3)]GlcNAc
# Method in brief: as §1
# [18] = target: Gal(b1-4)GlcNAc(b1-3)GalNAc
# Method in brief: as §1
# [19] = target: Gal(b1-4)GlcNAc(b1-3)[Fuc(a1-3)GlcNAc(b1-6)]Gal(b1-4)Glc
# Method in brief: as §1
# [20] = target: Gal(b1-4)GlcNAc(b1-3)[Gal(b1-4)GlcNAc(b1-6)]Gal(b1-4)GlcNAc
# Method in brief: as §1
# [21] = target: Gal(b1-4)GlcNAc(b1-3)[GlcNAc(b1-6)]Gal(b1-4)GlcNAc
# Method in brief: as §1
# [22] = target: Gal(b1-4)GlcNAc(b1-6)Gal(b1-4)GlcNAc
# Method in brief: as §1
# [23] = target: Gal(b1-4)GlcNAc(b1-6)GalNAc
# Method in brief: as §1
# [24] = target: Gal(b1-4)GlcNAc(b1-6)[Gal(b1-3)]GalNAc
# Method in brief: as §1
# [25] = target: Gal(b1-4)GlcNAc(b1-6)[Gal(b1-4)GlcNAc(b1-3)]GalNAc
# Method in brief: as §1
# [26] = target: Gal(b1-4)GlcNAc6P
# Method in brief: as §1
# [27] = target: Gal(b1-6)Gal
# Method in brief: as §1
# [28] = target: Gal3S(b1-3)GalNAc
# Method in brief: as §1
# [29] = target: Gal3S(b1-3)GlcNAc
# Method in brief: as §1
# [30] = target: Gal3S(b1-3)[Fuc(a1-4)]GlcNAc
# Method in brief: as §1
# [31] = target: Gal3S(b1-4)Glc
# Method in brief: as §1
# [32] = target: Gal3S(b1-4)Glc6S
# Method in brief: as §1
# [33] = target: Gal3S(b1-4)GlcNAc
# Method in brief: as §1
# [34] = target: Gal3S(b1-4)[Fuc(a1-3)]Glc6S
# Method in brief: as §1
# [35] = target: Gal3S(b1-4)[Fuc(a1-3)]GlcNAc
# Method in brief: as §1
# [36] = target: Gal3S(b1-4)[Fuc(a1-3)]GlcNAc6S
# Method in brief: as §1
# [37] = target: Gal3S4S(b1-4)GlcNAc
# Method in brief: as §1
# [38] = target: Gal3S6S(b1-4)GlcNAc
# Method in brief: as §1
# [39] = target: Gal3S6S(b1-4)GlcNAc6S
# Method in brief: as §1
# [40] = target: Gal4S(b1-4)GlcNAc
# Method in brief: as §1
# [41] = target: Gal4S6S(b1-4)GlcNAc
# Method in brief: as §1
# [42] = target: Gal6P(b1-4)GlcNAc
# Method in brief: as §1
# [43] = target: Gal6S(b1-3)GlcNAc
# Method in brief: as §1
# [44] = target: Gal6S(b1-3)GlcNAc6S
# Method in brief: as §1
# [45] = target: Gal6S(b1-4)Glc
# Method in brief: as §1
binder,measurement,setting,value
B1,glycan array binding signal (z-score),[1],0.556
same,glycan array binding signal (z-score),[2],-0.127
same,glycan array binding signal (z-score),[3],0.251
same,glycan array binding signal (z-score),[4],0.959
same,glycan array binding signal (z-score),[5],0.242
same,glycan array binding signal (z-score),[6],-0.144
same,glycan array binding signal (z-score),[7],0.377
same,glycan array binding signal (z-score),[8],1.18
same,glycan array binding signal (z-score),[9],0.461
same,glycan array binding signal (z-score),[10],0.203
same,glycan array binding signal (z-score),[11],0.081
same,glycan array binding signal (z-score),[12],0.063
same,glycan array binding signal (z-score),[13],1.05
same,glycan array binding signal (z-score),[14],-0.117
same,glycan array binding signal (z-score),[15],0.234
same,glycan array binding signal (z-score),[16],-0.879
same,glycan array binding signal (z-score),[17],-0.108
same,glycan array binding signal (z-score),[18],-0.373
same,glycan array binding signal (z-score),[19],-0.301
same,glycan array binding signal (z-score),[20],-0.214
same,glycan array binding signal (z-score),[21],-0.582
same,glycan array binding signal (z-score),[22],0.139
same,glycan array binding signal (z-score),[23],-0.559
same,glycan array binding signal (z-score),[24],-0.033
same,glycan array binding signal (z-score),[25],-0.34
same,glycan array binding signal (z-score),[26],-0.655
same,glycan array binding signal (z-score),[27],-0.323
same,glycan array binding signal (z-score),[28],-0.664
same,glycan array binding signal (z-score),[29],-0.178
same,glycan array binding signal (z-score),[30],-0.125
same,glycan array binding signal (z-score),[31],0.605
same,glycan array binding signal (z-score),[32],0.657
same,glycan array binding signal (z-score),[33],1.26
same,glycan array binding signal (z-score),[34],-0.615
same,glycan array binding signal (z-score),[35],-0.349
same,glycan array binding signal (z-score),[36],2.11
same,glycan array binding signal (z-score),[37],-1.22
same,glycan array binding signal (z-score),[38],-0.857
same,glycan array binding signal (z-score),[39],-0.157
same,glycan array binding signal (z-score),[40],-0.469
same,glycan array binding signal (z-score),[41],0.053
same,glycan array binding signal (z-score),[42],-0.078
same,glycan array binding signal (z-score),[43],-0.51
same,glycan array binding signal (z-score),[44],-0.209
same,glycan array binding signal (z-score),[45],-0.176

# Reprinted at random: four records from the list, in no set order.
binder,measurement,setting,value
B1,glycan array binding signal (z-score),[38],-0.857
same,glycan array binding signal (z-score),[37],-1.22
same,glycan array binding signal (z-score),[16],-0.879
same,glycan array binding signal (z-score),[6],-0.144
